Test results: patent US11761044B2, “Method for evaluating whether an individual with cancer is suitable for treatment with a CDK inhibitor” (priority 2018, dated 2023)
At least one structure is not confirmed: it was looked up by name or label, or the drawing left a doubt. Some results were stated once for a whole list of compounds, not compound by compound.

Tests used:
metastatic NPC = assay: PAL salvage treatment of one metastatic NPC patient; assay type: in vivo, human
Description: FIGS. 12A-12E: Cyclin D1 IHC in metastatic NPC clinical samples. FIG. 12A: Cyclin D1 expression in a liver and a lung metastasized NPC patients. The Kaplan-Meier survival curves of the NPC patients classified by the (FIG. 12B) intensity and (FIG. 12C) percentage of positive cells in cyclin D1 IHC staining. A NPC patient with T4N2M0 (stage IVa), also a hepatitis B virus carrier, received concurrent chemoradiotherapy (CCRT) for local disease control. Liver metastasis (cyclin D1 staining, in FIG. 12A) was detected nine months later and five different lines of palliative chemotherapy prescribed. Finally, the patient received palbociclib (PAL) as salvage treatment at Johns Hopkins Medicine, Singapore. FIG. 12D: Plasma EBV DNA load reflecting the clinical treatment response of the patient was decreased after treatment with PAL.
One NPC patient, subjected to local CCRT, developed liver, lung, and bone metastasis with high cyclin D1 expression (FIG. 12A). […] Wherein PAL (codenamed PD-0332991, trade name: IBRANCE, purchased from Pfizer) is administered according to the following schedule. The dose range of IBRANCE is between 75 mg/day to 125 mg/day. The recommended dose of IBRANCE is 125 mg/day taken orally with food for 21 consecutive days followed by 7 days off treatment to comprise a complete cycle of 28 days.

two NPC-PDX models = assay: Anti-tumor activity and adverse effects in two NPC-PDX models (summary); assay type: in vivo, NOD/SCID mice
Description: (§1) PDX models were generated according to a previously reported procedure (Hsu C L, et al: Application of a patient-derived xenograft model in cytolytic viral activation therapy for nasopharyngeal carcinoma. Oncotarget 2015, 6(31):31323-31334.). Briefly, NPC tumor samples were obtained from patients undergoing biopsy or surgical resection. Each sample was immediately cut into small sections, immersed in antibiotic-containing PBS and implanted subcutaneously in the flank regions of anesthetized NOD/SCID mice. After reaching a diameter of ˜1 cm, the xenograft was excised and sub-implanted into subsequent passage mice.
(§2) The following dose schedules were used: gemcitabine (2 mg/kg, 5 times/week), GSK-126 (2.5 mg/kg, 5 times/week), decitabine (2.5 mg/kg, 3 times/week), and palbociclib (150 mg/kg, 5 times/week). Gemcitabine, GSK-126, and decitabine were dissolved in DMSO and palbociclib was dissolved in distilled water. The EBV-positive cell line, C666-1, mice xenograft served as the control. Tumor dimensions were measured twice a week with calipers, and tumor volume was calculated with the formula, tumor volume (mm^3)=a (length, mm)×b2 (width, mm)×0.5. Tumors were harvested for further analysis. Three to five mice for each group were used. […] Final tumor volumes were compared using two-way ANOVA adjusted for multiple comparisons.

C666-1 cells = assay: Cell cycle analysis by flow cytometry; assay type: cell-based; conditions: 0.1, 0.5 and 1 μM PAL for 48 h, compared with control (DMSO); FIG. 6E
[1] = system: PDX-Bone (NPC13-F4) tumor; assay: Drug sensitivity test in NPC-PDX-13-F4 (PDX-Bone passage 4); assay type: in vivo, NOD/SCID mice; conditions: FIG. 7F
PDX-LN (NPC02) tumor = conditions: FIGS. 7G, 7H, 8A-8B
Description: as §1, §2

[2] = system: cell cycle-related proteins in PDX-Bone; assay: Western blot of cell cycle-related proteins in PDX-Bone tissues; assay type: in vivo, NOD/SCID mice; conditions: FIG. 9B
Procedure: The western blot analysis is performed with 100 μg protein lysis/well. The antibodies used in this disclosure: RB1 (CusaBio PA003948), RB-P (Cell Signaling 9307), E2F1 (Santa Cruz SC-193), CDK2 (CusaBio PA001533), CDK4 (Santa Cruz SC-23896), CDK6 (Santa Cruz SC-8396), CCNE2 (Proteintech 11935-1-AP), CDKN2A (Prosci 4211), CDKN1A (Santa Cruz SC-6246), PCNA (Proteintech 10205-2-AP), and GAPDH (Santa Cruz FL-335).
To compare the nine selected cell cycle-related genes before and after different drug treatments in PDX-Bone, normalized reads per kilobase million (RPKM; FIG. 9A, upper panel), fold change of normalized RPKM versus control (DMSO) (FIG. 9A, middle panel), and fold change of Q-RT-PCR RNA expression validation (FIG. 9A, lower panel) were determined. Since CDKN2A and 2B genes (grey bars) were deleted in NPC PDX-Bone, no RNA transcript was detected (FIG. 9A, upper panel). […] Treatment with GEM, DEC and PAL induced a 3 to 5-fold increase in expression of cell arrest marker CDKN1A (p21). […] The data of this example collectively indicate that PAL blocks CDK activities and simultaneously reduces the protein levels of several key cell cycle activators, leading to effective suppression of PDX-Bone tumor growth in vivo.

C666-1 cell = assay: Cell growth assay (drug sensitivity test) in C666-1 cells; assay type: cell-based; conditions: EBV-positive C666-1 cell, FIG. 6A
Description: NP69 (T antigen immortalized nasopharyngeal epithelial (NP) cells), C666-1 (NPC cell harboring EBV) and HK-1 (NPC cell without EBV) cells were maintained in RPMI containing 10% fetal bovine serum (FBS). […] All experiments involving laboratory animals followed the Guidelines for Animal Experiments of CGMH and were approved by the Animal Research CGMH.
Based on the mutations discovered by integrated genomic analyses in NPC-PDXs, this example is to test whether cell cycle inhibitor may be used as anti-cancer drug in the NPC-PDX lines which is establish in example 1. This example selected a FDA approved cell cycle inhibitor “palbociclib” (PAL, CDK4/6 inhibitor) currently used in breast cancer. […] As comparison, a conventional NPC chemo-drug “gemcitabine” (GEM, a nucleotide analogue) was also included. These four drugs (GEM, GSK, DEC, and PAL) were first tested in an EBV-positive cell line, C666-1. Then these four drugs were used in PDX-C666.1 xenograft, all four drugs exerted suppressive effects on C666-1 xenograft growth when compared with DMSO control (as shown in FIGS. 6B and 6C). […] To confirm PAL can induce growth arrest at the G0G1 phase, C666-1 cells were treated with 0.1, 0.5 and 1 μM PAL for 48 h and followed by flow cytometry analysis.

Row | SMILES | plasma EBV DNA load (metastatic NPC; after PAL treatment, FIG. 12D) | follow-up PET / whole-body tumor scan response (metastatic NPC; before and after PAL at 2-month intervals, FIG. 12E) | anti-tumor activity (two NPC-PDX models) | percentage of cells at the G0G1 phase (C666-1 cells) | CCND1 IHC staining after drug treatment [1] | xenograft growth (tumor volume, tumor weight) (PDX-LN (NPC02) tumor) | CDK6 and PCNA protein levels [2] | protein expression of the cell arrest marker CDKN1A (p21) [2] | protein levels of cell cycle activators (RB-p, total RB, E2F1 and CDK2) [2] | IC50 (C666-1 cell)
1 | CC(=O)c1c(C)c2cnc(Nc3ccc(N4CCNCC4)cn3)nc2n(C2CCCC2)c1=O [PAL, palbociclib] | decreased | stable disease | anti-tumor activity | increased in a dose-dependent manner | homogenous overexpression | significant suppressive effects | slightly decreased | markedly increased | Significant reduction | 
2 | CC[C@H](C)n1cc(C)c2c(C(=O)NCc3c(C)cc(C)[nH]c3=O)cc(-c3ccc(N4CCNCC4)nc3)cc21 [GSK, GSK126] |  |  |  |  |  |  |  |  |  | 10 to 100 µM
3 | Nc1ncn([C@H]2C[C@H](O)[C@@H](CO)O2)c(=O)n1 [DEC, decitabine] |  |  |  |  |  | anti-tumor growth |  |  |  | 
